For 1 molecule, binding results are on record in PMC6802120, “Concatenation of 14-3-3 with partner phosphoproteins as a tool to study their interaction” (Scientific Reports, 2019).

Amino acid sequences for entries named in this document (tags omitted). A change or cut given only in a name is not applied to a line headed by its entry.
UniProt P31947: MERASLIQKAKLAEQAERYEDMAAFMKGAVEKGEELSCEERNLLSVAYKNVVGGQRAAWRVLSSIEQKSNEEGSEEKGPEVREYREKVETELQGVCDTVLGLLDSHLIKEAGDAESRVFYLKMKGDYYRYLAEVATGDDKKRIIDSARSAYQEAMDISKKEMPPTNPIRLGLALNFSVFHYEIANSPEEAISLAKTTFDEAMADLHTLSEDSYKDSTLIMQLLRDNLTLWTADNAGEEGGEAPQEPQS

No constants are given. Whether binding was seen depends on the method and setting.

This test deals with 14-3-3σ∆C (C-terminally truncated human 14-3-3σ, residues 1-231) (human) (UniProt P31947). Kind of test: SEC; fluorescence-assisted size-exclusion spectrochromatography, Superdex 200 Increase 5/150, SEC buffer; detection at 230 nm absorbance and Trp fluorescence (excitation 298 nm, emission 360 nm); proteins alone and mixed; both purified. In general terms: SEC sorts molecules by how far they enter the pores of the column.

B1: HSPB6 ACD (α-crystallin domain, residues 72-149) (domain or fragment, human, UniProt O14558 72-149, looked up)
chain: GHFSVLLDVKHFSPEEIAVKVVGEHVEVHARHEERPDEHGFVAREFHRRYRLPPGVDPAAVTSALSPEGVLSIQAAPA
notes: human small heat shock protein HSPB6, α-crystallin domain, residues 72-149; also called ACD dimer; isolated ACD
On to B1, for which the binding entry is “no binding (tested: very high micromolar concentrations)”.
